In assay [1] the target is PRMT3 (human (endogenous in SW480 and HEK293T)) (UniProt O60678). Description: co-IP; endogenous proteins, reciprocal co-IP in SW480 and HEK293T cells; IP lysis buffer, 2 mg lysate with antibody overnight at 4 °C, protein A/G agarose beads, western blot.
The target of assay [2] is T1, lysine-specific demethylase 4A (KDM4A) (human (endogenous in SW480)) (UniProt O75164).
T1 sequence: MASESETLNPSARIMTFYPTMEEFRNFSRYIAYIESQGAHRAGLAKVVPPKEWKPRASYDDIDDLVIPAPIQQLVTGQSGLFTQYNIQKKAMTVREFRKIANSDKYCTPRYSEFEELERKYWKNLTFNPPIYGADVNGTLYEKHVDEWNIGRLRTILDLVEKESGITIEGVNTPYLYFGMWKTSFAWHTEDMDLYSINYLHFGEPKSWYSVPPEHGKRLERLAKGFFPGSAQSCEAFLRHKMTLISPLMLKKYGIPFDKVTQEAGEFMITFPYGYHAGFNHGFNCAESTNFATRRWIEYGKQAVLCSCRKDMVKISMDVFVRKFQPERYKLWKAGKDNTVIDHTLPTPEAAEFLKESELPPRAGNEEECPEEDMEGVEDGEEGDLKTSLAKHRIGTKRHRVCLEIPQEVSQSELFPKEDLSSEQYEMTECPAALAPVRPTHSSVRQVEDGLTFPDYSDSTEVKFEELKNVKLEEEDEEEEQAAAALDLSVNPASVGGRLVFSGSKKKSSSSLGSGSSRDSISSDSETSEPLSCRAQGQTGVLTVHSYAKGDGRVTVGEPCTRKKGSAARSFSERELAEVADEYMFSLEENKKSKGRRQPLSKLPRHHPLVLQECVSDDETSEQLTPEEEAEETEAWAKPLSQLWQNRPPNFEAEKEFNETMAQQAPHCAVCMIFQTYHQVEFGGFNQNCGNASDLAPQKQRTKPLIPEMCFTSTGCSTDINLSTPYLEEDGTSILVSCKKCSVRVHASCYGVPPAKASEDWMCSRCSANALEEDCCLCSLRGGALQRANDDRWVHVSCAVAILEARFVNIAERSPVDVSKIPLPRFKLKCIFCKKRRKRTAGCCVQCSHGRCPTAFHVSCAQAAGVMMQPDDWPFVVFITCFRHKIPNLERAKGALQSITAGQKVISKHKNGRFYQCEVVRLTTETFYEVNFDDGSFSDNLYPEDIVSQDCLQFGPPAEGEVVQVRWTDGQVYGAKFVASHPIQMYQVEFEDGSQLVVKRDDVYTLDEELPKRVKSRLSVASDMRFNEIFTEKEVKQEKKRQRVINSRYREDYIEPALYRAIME
Description: co-IP; endogenous proteins, reciprocal co-IP in SW480 cells with radiation (4 Gy) treatment; IP lysis buffer, antibody overnight at 4 °C, protein A/G agarose beads, western blot.

The chains behind the UniProt entries cited, without tags or fusion partners.
UniProt O60678: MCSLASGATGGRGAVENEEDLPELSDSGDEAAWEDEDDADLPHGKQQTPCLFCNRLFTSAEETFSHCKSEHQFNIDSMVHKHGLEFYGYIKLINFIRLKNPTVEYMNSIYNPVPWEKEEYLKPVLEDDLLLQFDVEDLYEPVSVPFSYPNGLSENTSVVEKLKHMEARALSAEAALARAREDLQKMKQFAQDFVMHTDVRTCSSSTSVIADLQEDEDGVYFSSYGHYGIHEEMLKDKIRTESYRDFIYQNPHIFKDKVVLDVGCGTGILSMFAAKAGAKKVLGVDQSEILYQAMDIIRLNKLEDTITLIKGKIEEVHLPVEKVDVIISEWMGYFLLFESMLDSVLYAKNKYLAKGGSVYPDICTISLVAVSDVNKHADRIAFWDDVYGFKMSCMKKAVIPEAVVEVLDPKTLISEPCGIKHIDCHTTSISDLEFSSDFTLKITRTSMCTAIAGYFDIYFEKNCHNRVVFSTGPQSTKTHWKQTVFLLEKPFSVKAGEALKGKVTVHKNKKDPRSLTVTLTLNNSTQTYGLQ
UniProt P67809: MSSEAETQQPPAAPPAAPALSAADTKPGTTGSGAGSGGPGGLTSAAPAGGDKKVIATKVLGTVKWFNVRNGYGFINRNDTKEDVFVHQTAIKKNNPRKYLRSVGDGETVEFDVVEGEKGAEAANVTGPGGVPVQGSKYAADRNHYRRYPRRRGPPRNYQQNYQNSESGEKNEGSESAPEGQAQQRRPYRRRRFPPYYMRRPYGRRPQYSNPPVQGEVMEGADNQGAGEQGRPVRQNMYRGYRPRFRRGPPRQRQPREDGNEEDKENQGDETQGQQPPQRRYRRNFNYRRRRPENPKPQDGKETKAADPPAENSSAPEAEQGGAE
UniProt P52294: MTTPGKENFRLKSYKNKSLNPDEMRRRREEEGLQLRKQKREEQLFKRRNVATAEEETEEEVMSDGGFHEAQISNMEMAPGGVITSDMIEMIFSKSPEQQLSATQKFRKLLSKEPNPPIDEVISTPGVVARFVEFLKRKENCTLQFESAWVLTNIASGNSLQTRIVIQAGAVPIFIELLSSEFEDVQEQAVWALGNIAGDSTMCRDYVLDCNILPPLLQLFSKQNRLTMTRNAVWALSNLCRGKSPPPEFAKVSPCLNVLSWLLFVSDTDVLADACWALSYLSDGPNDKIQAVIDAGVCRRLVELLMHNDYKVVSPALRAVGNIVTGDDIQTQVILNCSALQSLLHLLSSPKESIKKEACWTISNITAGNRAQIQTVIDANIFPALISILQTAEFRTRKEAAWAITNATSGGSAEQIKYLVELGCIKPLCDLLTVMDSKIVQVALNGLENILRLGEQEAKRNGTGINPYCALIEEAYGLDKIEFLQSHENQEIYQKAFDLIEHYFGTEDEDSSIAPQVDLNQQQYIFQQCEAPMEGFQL
UniProt Q14974: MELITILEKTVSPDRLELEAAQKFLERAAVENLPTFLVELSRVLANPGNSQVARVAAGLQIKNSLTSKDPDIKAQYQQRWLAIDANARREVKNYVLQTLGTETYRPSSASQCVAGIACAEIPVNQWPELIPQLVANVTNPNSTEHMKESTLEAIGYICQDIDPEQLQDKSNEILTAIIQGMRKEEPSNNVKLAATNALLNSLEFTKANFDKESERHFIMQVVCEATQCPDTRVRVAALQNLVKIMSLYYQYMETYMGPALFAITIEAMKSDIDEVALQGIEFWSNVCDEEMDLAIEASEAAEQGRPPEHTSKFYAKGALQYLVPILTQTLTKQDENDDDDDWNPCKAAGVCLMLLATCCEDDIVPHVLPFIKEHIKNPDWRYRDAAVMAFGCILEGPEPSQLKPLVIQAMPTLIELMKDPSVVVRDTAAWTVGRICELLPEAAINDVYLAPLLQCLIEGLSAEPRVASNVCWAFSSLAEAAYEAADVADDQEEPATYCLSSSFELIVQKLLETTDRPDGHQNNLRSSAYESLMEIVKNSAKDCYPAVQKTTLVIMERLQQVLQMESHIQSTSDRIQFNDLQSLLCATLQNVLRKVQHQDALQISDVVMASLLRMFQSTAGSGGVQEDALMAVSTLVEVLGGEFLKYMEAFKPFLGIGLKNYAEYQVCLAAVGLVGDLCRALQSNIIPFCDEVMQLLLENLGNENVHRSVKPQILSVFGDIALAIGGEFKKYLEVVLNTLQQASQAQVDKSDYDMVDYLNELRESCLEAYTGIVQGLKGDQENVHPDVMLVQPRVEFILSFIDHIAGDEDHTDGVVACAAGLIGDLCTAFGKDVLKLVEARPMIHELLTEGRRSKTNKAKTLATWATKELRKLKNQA

For assay [3], the target named is Y-box binding protein 1 (YBX1) (human (endogenous in SW480 and HEK293T)) (UniProt P67809). The assay can be described thus: co-IP; co-IP of YBX1 with importins in control, PRMT3-KO and PRMT3-OE cells; IP lysis buffer, antibody overnight at 4 °C, protein A/G agarose beads, western blot.
Assay [4] shares this target. Description: co-IP; endogenous proteins, reciprocal co-IP in SW480 cells with radiation (4 Gy) treatment; IP lysis buffer, antibody overnight at 4 °C, protein A/G agarose beads, western blot.

These are yes or no findings as the source states them, for the method shown. In cells and extracts the contact can be indirect. Some results given as binding are weak or reduced against the parent protein; the word gives no strength.

In the case of “Y-box binding protein 1 (YBX1) (from UniProt P67809 1-324)”, the binding result in assay [1] and in assay [2] was “binds” throughout. importin α5 (from UniProt P52294 1-538): the binding entry in assay [3] is given as “binds”. Same read-out and setting: to importin β (from UniProt Q14974 1-876) belongs “binds”.

B1: lysine-specific demethylase 4A (KDM4A) (enzyme, UniProt O75164 1-1064)
chain: MASESETLNPSARIMTFYPTMEEFRNFSRYIAYIESQGAHRAGLAKVVPPKEWKPRASYDDIDDLVIPAPIQQLVTGQSGLFTQYNIQKKAMTVREFRKIANSDKYCTPRYSEFEELERKYWKNLTFNPPIYGADVNGTLYEKHVDEWNIGRLRTILDLVEKESGITIEGVNTPYLYFGMWKTSFAWHTEDMDLYSINYLHFGEPKSWYSVPPEHGKRLERLAKGFFPGSAQSCEAFLRHKMTLISPLMLKKYGIPFDKVTQEAGEFMITFPYGYHAGFNHGFNCAESTNFATRRWIEYGKQAVLCSCRKDMVKISMDVFVRKFQPERYKLWKAGKDNTVIDHTLPTPEAAEFLKESELPPRAGNEEECPEEDMEGVEDGEEGDLKTSLAKHRIGTKRHRVCLEIPQEVSQSELFPKEDLSSEQYEMTECPAALAPVRPTHSSVRQVEDGLTFPDYSDSTEVKFEELKNVKLEEEDEEEEQAAAALDLSVNPASVGGRLVFSGSKKKSSSSLGSGSSRDSISSDSETSEPLSCRAQGQTGVLTVHSYAKGDGRVTVGEPCTRKKGSAARSFSERELAEVADEYMFSLEENKKSKGRRQPLSKLPRHHPLVLQECVSDDETSEQLTPEEEAEETEAWAKPLSQLWQNRPPNFEAEKEFNETMAQQAPHCAVCMIFQTYHQVEFGGFNQNCGNASDLAPQKQRTKPLIPEMCFTSTGCSTDINLSTPYLEEDGTSILVSCKKCSVRVHASCYGVPPAKASEDWMCSRCSANALEEDCCLCSLRGGALQRANDDRWVHVSCAVAILEARFVNIAERSPVDVSKIPLPRFKLKCIFCKKRRKRTAGCCVQCSHGRCPTAFHVSCAQAAGVMMQPDDWPFVVFITCFRHKIPNLERAKGALQSITAGQKVISKHKNGRFYQCEVVRLTTETFYEVNFDDGSFSDNLYPEDIVSQDCLQFGPPAEGEVVQVRWTDGQVYGAKFVASHPIQMYQVEFEDGSQLVVKRDDVYTLDEELPKRVKSRLSVASDMRFNEIFTEKEVKQEKKRQRVINSRYREDYIEPALYRAIME
B1: the binding entry in assay [4] is reported as “binds”.
